Measured data: PubChem BioAssay AID686943 (Drosophila RNAi Screening Center, 2013)
The screen tested about 23,000 reagents; this is a random part of those that have a named target and a result. 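Extra replicates exist only for a retested subset of genes; insulin dose and duration not given; both raised and lowered dpERK matter.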 The numbers tell different reagents against one gene apart. A plus sign joins genes that one reagent is predicted to hit. Not all columns of the deposit are shown. The record does not give: the amount of reagent, the time to read-out.

- Aim: 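Fly genes whose loss alters ERK activation after insulin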 (primary screen)
- Cells: Drosophila S2R+ haemocyte-like cells expressing YFP-tagged ERK (Rolled)
- Reagent: long dsRNA against Drosophila genes
- Conditions: insulin stimulation versus unstimulated cells; dose and duration not given
- Measured: 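Per-plate z-scores of phospho-ERK immunostaining normalised to YFP-tagged ERK, measured with and without insulin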
- Scale: replicate 1, z-score of dpERK with insulin: higher = more active ERK per ERK-YFP after insulin

replicate 1, z-score of dpERK with insulin, by target gene and reagent
betaTub60D (beta-Tubulin at 60D): #1 0.78; #2 -0.47
Atg4a (Autophagy-related 4a): #1 0.3
epsilonCOP (Coat Protein (coatomer) epsilon): #1 -0.04
mr (morula): #1 -0.14; #2 -0.47
eIF4E6 (eukaryotic translation initiation factor 4E6): #1 -1.05
CG31495: #1 -0.94
CG3939: #1 1.42
CG8545: #1 -0.65
NdufA3 (NADH:ubiquinone oxidoreductase subunit A3): #1 -0.12
Ptp10D (Protein tyrosine phosphatase 10D): #1 0.41
tun (tungus): #1 1.95; #2 0.86
ATPsynCF6 (ATP synthase, coupling factor 6): #1 0
CG5810: #1 0.39; #2 0.26
CG13511: #1 0.6
CG32212 + hpRNA:CR33940: #1 -0.65
CG31344: #1 0.68
CG3419 (retired record): #1 -0.01; #2 -0.16
CG1986: #1 -1.87
DCP1 (Decapping protein 1): #1 0.25
CG11911: #1 -0.81
Rtnl1 (Reticulon-like1): #1 -0.65; #2 0.67; #3 -0.06; #4 0.33
CG6071: #1 -0.69
CIA30 (Complex I intermediate-associated protein, 30 kDa): #1 -0.07
beta-PheRS (Phenylalanyl-tRNA synthetase, beta-subunit): #1 -0.45
Blos4: #1 0.97
CG10628: #1 -0.31
CG15615: #1 -1.83
eEF2 (eukaryotic translation elongation factor 2): #1 -1.87
Tsp66E (Tetraspanin 66E): #1 0.39
Opbp (Optix-binding protein): #1 0.05
Myo28B1 (Myosin 28B1): #1 -0.49
CG13793: #1 0.14
Syn1 + CG7370: #1 -0.56
Alh (Alhambra): #1 -4.94; #2 1.46; #3 0.57
CG16734: #1 -0.03
tgy (twiggy): #1 0.21
CG11825: #1 -0.05
CG1827: #1 -0.13
Rac2: #1 -2.72
alph (alphabet): #1 1.47
CG14013: #1 1.64
CG11155: #1 -0.05; #2 -0.27
ZAP3: #1 0.35; #2 0.5; #3 1.92
trio: #1 0.64; #2 -9.26; #3 -0.37
